Reference: article PMC5451212, “RISC-interacting clearing 3’- 5’ exoribonucleases (RICEs) degrade uridylated cleavage fragments to maintain functional RISC in Arabidopsis thaliana” (eLife, 2017)

T1: Flag-4Myc-AGO10 (A. thaliana) (UniProt Q9XGW1)
T1 sequence: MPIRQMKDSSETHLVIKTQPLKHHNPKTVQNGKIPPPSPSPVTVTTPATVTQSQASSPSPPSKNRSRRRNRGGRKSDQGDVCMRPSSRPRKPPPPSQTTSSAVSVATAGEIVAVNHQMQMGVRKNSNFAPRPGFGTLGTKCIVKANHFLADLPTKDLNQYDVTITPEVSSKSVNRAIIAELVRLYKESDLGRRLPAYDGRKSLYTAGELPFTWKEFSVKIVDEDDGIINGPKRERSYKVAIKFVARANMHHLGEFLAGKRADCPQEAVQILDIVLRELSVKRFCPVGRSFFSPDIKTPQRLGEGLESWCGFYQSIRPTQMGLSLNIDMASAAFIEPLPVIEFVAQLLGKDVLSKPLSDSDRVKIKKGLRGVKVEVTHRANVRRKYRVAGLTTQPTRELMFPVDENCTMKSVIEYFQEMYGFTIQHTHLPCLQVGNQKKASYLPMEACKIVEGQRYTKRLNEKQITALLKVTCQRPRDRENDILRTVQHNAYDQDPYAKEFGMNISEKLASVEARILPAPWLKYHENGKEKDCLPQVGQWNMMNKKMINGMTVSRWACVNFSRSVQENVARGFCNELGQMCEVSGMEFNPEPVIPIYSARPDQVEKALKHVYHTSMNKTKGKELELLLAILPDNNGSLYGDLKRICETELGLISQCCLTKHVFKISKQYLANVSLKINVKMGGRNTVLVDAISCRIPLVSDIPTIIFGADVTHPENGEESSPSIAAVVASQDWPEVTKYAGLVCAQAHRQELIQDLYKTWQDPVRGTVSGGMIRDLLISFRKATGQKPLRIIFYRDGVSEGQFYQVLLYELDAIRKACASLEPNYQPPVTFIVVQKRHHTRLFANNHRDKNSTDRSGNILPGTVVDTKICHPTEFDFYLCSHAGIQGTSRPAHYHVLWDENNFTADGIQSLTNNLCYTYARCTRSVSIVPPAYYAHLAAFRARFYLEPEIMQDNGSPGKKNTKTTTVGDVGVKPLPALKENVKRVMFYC


Key:
[1] = target: T1, Flag-4Myc-AGO10 (A. thaliana); assay: affinity purification with mass spectrometry; Flag-4Myc-AGO10 from transgenic A. thaliana MM1 suspension cells; two-step IP (anti-Flag M2 magnetic beads, 3XFlag peptide elution, anti-Myc agarose), 20 mM Tris-HCl pH 7.5, 150 mM NaCl, 4°C; bands absent from the control IP of non-transgenic cells analysed by MS
[2] = target: T1, Flag-4Myc-AGO10 (A. thaliana); assay: as above; remark: listed apart in the source

Molecule | binding [1] | binding [2]
HSP90 (A. thaliana (endogenous in MM1 cells)) | binds | –
RICE1 (At3g11770), endogenous or untagged overexpressed (protein, UniProt Q9SF21 1-200) MASFDGQGFMMVDNSWVQTKAIDVESTTDISPYLSKILEDSVWNGNRSIVFDVYWDVKSVSTKSEWRLCSVKFSTKNFCLFLRLPNPFCDNLKDLYRFFASKFVTFVGVQIQEDLALLKENHGIVIRSSLEIGKLAAKARGTPIVEFLGTRELAHKILWYDMSRLDSIQSKWDEASSNDRLEAAAIEGWLIFNVYDQLQQ | – | binds

Like-named read-outs stand apart in the source and are kept apart here. These are yes or no findings as the source states them, for the method shown. In cells and extracts the contact can be indirect. A yes stands for co-enrichment or nearness to the bait. Other partners may have been found. Sequences can lack the tags named with a protein.
